Reference: US20150010566A1
No constants are given. Whether binding was seen depends on the method and setting. For part of these data: A result given as binding can be weak or reduced; the word gives no strength.

Tests used:
[1] = biological target: recombinant HA of H1 (A/New Caledonia/20/1999) (Influenza A virus H1N1 A/New Caledonia/20/1999 (host Human)); test: ELISA; recombinant HA coated 1 µg/ml; B cell supernatant
[2] = biological target: recombinant HA of H1 (A/New Caledonia/20/1999) (Influenza A virus H1N1 A/New Caledonia/20/1999 (host Human)); test: ELISA; recombinant HA coated; mAb
[3] = biological target: recombinant HA of Influenza B (B/Florida/4/2006) (Influenza B virus B/Florida/4/2006 (host Human)); test: ELISA; recombinant HA coated; mAb
[4] = biological target: recombinant HA of H1N1 (A/California/07/2009) (Influenza A virus H1N1 A/California/07/2009 (host Human)); test: ELISA; recombinant HA coated; mAb
[5] = biological target: recombinant HA of H3 (A/Wyoming/03/2003) (Influenza A virus H3N2 A/Wyoming/03/2003 (host Human)); test: ELISA; recombinant HA coated 1 µg/ml; B cell supernatant; anti-human IgG-HRP
[6] = biological target: recombinant HA of H3 (A/Wyoming/03/2003) (Influenza A virus H3N2 A/Wyoming/03/2003 (host Human)); test: ELISA; recombinant HA coated; mAb; anti-human IgG-HRP

B1: AT10-001 (antibody, V domains shown)
VH: EVQLLESGGGLVQPGGSLRLSCAASGFSFSTYAMSWVRQAPGKGLEWVSGISGSGESTYYADSVKGRFTVSRDNSKNTLYLQMNSLRAEDTAVYYCAKQGDHIAWLLRGINFDYWGQGVLVTVSS
VL: EIVLTQSPGTLSLSPGERATLSCRASQSVSSSYLAWYQQKPGQAPRLLIYGASTRATGIPDRFSGRGSGTDFTLTISSLEPEDFAVYYCQNYGSPFLFTFGPGTKVDIKR
- binding [1]: no binding
- binding [2]: no binding
- binding [3]: no binding
- binding [4]: no binding
- binding [5]: binds
- binding [6]: binds

B2: AT10-002 (antibody, V domains shown)
VH: QLQLQESGPRLVKPSETLSLTCSVSGVSISSSNYYWGWIRQPPGKGLEWIGTIYHSGSTYYNPSLKSRLIISVDTSKNQFYLQLTSLTAADSAVYYCATGGGFGWSQTYFGYWGQGTLVTASS
VL: QSALTQPASVSGSPGQSITISCTGTSSDVGAYNYVSWYQHHPGKAPKLMIYDVTYRPSGVSTRFSGSKSGNTASLTISGLQAEDEADYYCSSQSRSSTLVIFGGGTKLTVLG
- binding [1]: no binding
- binding [2]: no binding
- binding [3]: no binding
- binding [4]: no binding
- binding [5]: binds
- binding [6]: binds

B3: AT10-003 (antibody, V domains shown)
VH: QVHLVQSGAEVRKPGASVKVSCKVSGYTLNELSIHWLRQAPGRGLEWMGSFDPEDGETIYAQKFQGRVTMTGDTSTDTAYLELTSLRSEDTALYYCARGWGAVTSPFDFWGQGTLVTVSS
VL: DIVMTQSPLSLPVTPGEPASISCRSSQSLLHSNGHIYFDWYLQKPGQSPQLLIYLVSKRASGVPDRFSGSGSGTDFTLKISRVEAEDVGVYYCMQALETPFTFGPGTKVHIKR
- binding [1]: no binding
- binding [2]: no binding
- binding [3]: no binding
- binding [4]: no binding
- binding [5]: binds
- binding [6]: binds
